# In PubChem BioAssay AID1347423 (Functional Genomics Laboratory (NCATS/FGL), 2020):
# Hit rate of the full screen: of about 52,000 sequences, about 210 (0.4%) were called active.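 The calls were made as follows: active = gene whose silencing raises cell survival under the drug, median off-target-corrected z-score across its silencing RNAs 2 or more; inactive = the rest.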 This is one part of the list.
# Assay: Resistance to Poly (ADP-Ribose) Polymerase inhibitor: Gene Identification via Genome-wide siRNA Screen
# Settings: mouse BRCA2 R2336H ES cells, olaparib, CellTiter-Glo viability; active compounds read high
# How it was run: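 Mouse BRCA2 R2336H ES cells were reverse-transfected with siRNA (20 nM final), treated at 48 h with 500 nM olaparib, and read by CellTiter-Glo after 72 h. Scores: MAD-based z per siRNA, median per gene, seed off-target correction.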
row,Sequence,z-score
1,GGCAGAAUACUAUAUAUAGTT against 2310042M24Rik,inactive: -1.11
2,CCUAGGGACAUUGGUUAUUTT against Sema4f,inactive: 0.221
3,GUCAGUAUGGAGCGAUGGGTT against D11Bwg0280e,inactive: -0.164
4,GGACGACAAUCGACAAUCGTT against Acta1,inactive: -0.251
5,GGACCAGCUGAUAGAAGUCTT against Ap3b2,inactive: 1.14
6,GGAGAUUAGUUACUUCCAGTT against Slc1a7,inactive: 0.865
7,GCUAGUGAGUCGCUUGACUTT against 4833412N02Rik,inactive: -1.95
8,GGGAAAAGAACUUGCAUGUTT against Tmsb4x,inactive: 2.08
9,GCAGCACCUAAUGGGCAAATT against Bcl9l,inactive: -0.202
10,CCAGUUAAAAAGGUUCCAATT against A730037C10Rik,inactive: -0.805
11,GAGAUGCAUUGUUUCAGGUTT against V1rh9,inactive: 0.465
12,GGUUUUGGAAAAAGUGGAUTT against 1500003O03Rik,inactive: 0.795
13,GCUCGUACAAUGCAUUGCCTT against Thnsl1,inactive: 0.858
14,GGCACUCCUUCUCAGUUGCTT against Chek2,inactive: 0.2
15,GGUGGUAGAACCACUGAAGTT against Pxk,inactive: -0.442
16,CGUGUCUUUAUUCAUCCCATT against C1s,inactive: 0.29
17,GCUGCUACGCCAAACUUAATT against Ssx2ip,inactive: 0.988
18,GCUUCGUAAAGUUUGCACUTT against Exosc10,inactive: -0.535
19,CCUGCUAGAGCCAUUAUUGTT against 0610016J10Rik,inactive: 0.336
20,GGUCAUUGAUCUCAGCAACTT against Optc,inactive: -0.456
21,CCAGCCUCUUCUAAUACACTT against Preb,inactive: -0.0906
22,GCCAUGUACUCCUUACUGGTT against Mrc1,inactive: 0.164
23,GCGAUAGAAGCACUCCAAGTT against Bub1b,inactive: 0.119
24,CGGCGACUUCUUCAGCUAUTT against Aldh2,inactive: 1.12
25,CCCUUCACAACUUCUUAAUTT against Olfr872,inactive: 0.609
26,GAAGUCCACUGAACUUCUGTT against H3f3a,inactive: 0.742
27,GGACUGAGGAGAGCAAUAUTT against Cts6,inactive: -0.449

# As entered above.
# z-score, GGUCAUUGAUCUCAGCAACTT against Optc is entered as inactive: -0.456
# z-score, GGAGAUUAGUUACUUCCAGTT against Slc1a7 is entered as inactive: 0.865

# Continuation.

row,Sequence,z-score
1,GGAUGUAUGCCAAAGAAUUTT against Fmo5,inactive: 2.41
2,GGUUGGCCAUAUAAAGAGATT against Smarca3,active: 0.771
3,GGGACUUAUGUCCAGGAAGTT against Centg3,inactive: 1.11
4,GGAGCUUACUACAAAGCUATT against Gnb4,inactive: -0.209
5,GGACUCUGGACCUUAUGCUTT against 4930425N13Rik,inactive: -0.255
6,CGUGUUCUUGCUCAAGGAGTT against Rilp,inactive: -0.546
7,GGGUUAAUGCAGCUCACGUTT against Lrrtm1,inactive: 0.54
8,CCAUUCAUUUUUGAUGACCTT against Tlr3,inactive: 1.03
9,GGCGGGAGUACUAAAUGAATT against Eppk1,inactive: -0.446
10,GGUUCGUCGCCUUUUAGGGTT against Alx4,inactive: -0.3
11,GGACAGCAUCCGAAAAGUGTT against Thbs1,inactive: -2.14
12,GCAAUUAAGGUAGAGUCUGTT against Rassf1,inactive: -0.115
13,GCAGAUUCUCCGAUUACACTT against Fbxw8,inactive: 0.914
14,GCCCAUAGUAUAAAAUACCTT against 2810422M04Rik,inactive: 0.811
15,GCCACCCACCUAAAAUCAATT against BC025872,inactive: 0.573
16,GCCUUAAGAGAUGUAUUUCTT against V1rc14,inactive: -0.542
17,GCCUGCUAGAGGAUUUCAATT against 4930534B04Rik,inactive: -1.62
18,GGACUAGAAGAUCUACACUTT against Olfr67,inactive: -0.232
19,CGACCACAUUAUUGGGUUUTT against Senp8,inactive: -1.22
20,CCUGCUGGUAUAGAGUAUGTT against Eps8l2,inactive: 0.18
21,CCUUGUUGUUUGUCUCGACTT against Ern1,inactive: 0.406
22,GGUUUUGUCUGAUAAAACATT against 1110007C02Rik,inactive: 1.54
23,GGGACAACACAUUAACUUATT against Uckl1,inactive: 0.538
24,GGCAUUGAAGCUGAAAAGATT against 1700052N19Rik,inactive: 0.502
25,GAUAUUUCCACUCUAGCACTT against Fcrlm2,inactive: -0.141
26,GGCAGAACAGGCAUUUUCATT against 9130020G22Rik,inactive: -1.42
